Measured values reported in PubChem BioAssay AID1347423 (Functional Genomics Laboratory (NCATS/FGL), 2020).
In all, about 52,000 sequences went through this assay and about 210 (0.4%) were called active.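 Rule for the calls: active = gene whose silencing raises cell survival under the drug, median off-target-corrected z-score across its silencing RNAs 2 or more; inactive = the rest.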 The list shows a part of the results.

Experiment: Resistance to Poly (ADP-Ribose) Polymerase inhibitor: Gene Identification via Genome-wide siRNA Screen
Settings: mouse BRCA2 R2336H ES cells, olaparib, CellTiter-Glo viability; stronger effect = higher value
Summary of the method: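 Genome-wide siRNA screen (3 siRNAs/gene, 20 nM) in mouse ES cells carrying hypomorphic BRCA2 R2336H; olaparib 500 nM added 48 h post-transfection, CellTiter-Glo viability 72 h later. Normalized to plate-median negative control; MAD z-scores, gene median, seed-adjusted.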

Sequence | z-score
GCACAUAAAAUGCUCACUGTT against Rgr | inactive: -0.761
CCACAUCCCGAGUAUACAUTT against 4933424F08Rik | inactive: 0.2
GGCAAAUUCUGGAUCUGCUTT against BC031575 | inactive: -1.05
GGAAGGUGGAGUUUGAAAGTT against AW060207 | inactive: -0.184
GGUCUUCUACAGGAGCAAATT against Bcmo1 | inactive: 0.692
GCUGCAUUCAGUGAAGAUCTT against Lgals7 | inactive: -1.48
GGAAGAAGCAAAGAACUAUTT against Spg20 | inactive: 0.597
GGGCUUUCAAAGAUGAAAUTT against Mas1 | inactive: -0.164
CCUUGUUCGUCGCUGAGUUTT against Phca | inactive: -1.56
GGAUAUGGAGAAAAGGAAATT against BC026439 | inactive: -0.298
CCAAGUAUAGCUAUGCACATT against 4833432P19Rik | inactive: -0.224
CCACAGCACCGGAUAAAACTT against Mrgprb3 | inactive: 0.0362
GGAAUAAAGAAGUGAAAUCTT against Olfr1009 | inactive: 0.19
GGCCUUUAUCAGAAAGGUGTT against Grina | inactive: -0.252
GGAACUCGUCAUGAGAGAATT against Cndp1 | inactive: 0.299
GGGUGAAAAAGGAAUAAAGTT against Col7a1 | inactive: 1.23
CCAAAUUGCUUACAUGAUATT against Greb1 | inactive: 1.07
GCUUUCCACCACGUACUGATT against Plekha6 | inactive: 0.286
CCUAUGAAGCUCCAUUAUGTT against Madcam1 | inactive: 0.762
GCUCCAUGGAUAUUUCUGGTT against Pias1 | inactive: 0.971
GGCCAGGAAAGCUACUUAGTT against Kcnj11 | inactive: -0.256
GCCGACCAGUUCCUAGUGATT against 1500002M01Rik | inactive: -0.907
GCAUCUGCCAAAUUCAAUGTT against Hsf4 | inactive: -0.94
GGAUCACAGCAGAAGAAAUTT against 5730537D05Rik | inactive: -2.31
GCCACACUGAAAUAAUUUGTT against Slco1a4 | inactive: 0.896
CCACCAUGCUUCUAAGCCUTT against 4921511C16 | inactive: 0.8

Sequence | z-score
GUCUUGCGUGACAACAUCCTT against Hist2h4 | inactive: -1.34
GUCAGAACCAUAGCCAUGATT against V1ri7 | inactive: 0.723
GCAUCGCCAUCUAUAACUCTT against E230025K15 | inactive: 0.721
GCUUGCUUGACCUAACUAGTT against D6Ertd538e | inactive: 0.935
GGAUAGACAGAAAUUCUCATT against Flot1 | inactive: -0.724
CCUGAUUGGGAUCUCAAGATT against 2700094L05Rik | inactive: -0.425
GGUACAUUGGCAUUGUGAATT against Hnrpf | inactive: 0.344
CCUCUACAUCAGAGUAUGATT against 4930525K10Rik | inactive: -0.765
GGACUUUCUCUAGGAUCCATT against Slamf8 | inactive: -0.0842
GGAACAAUUGUUCCUGUGATT against Kcne1 | inactive: -0.318
CAUUGGUAUUGCCAAGGCATT against Olfr1330 | inactive: -0.872
GGCUGUCCAACAAGCAGAGTT against 9430067K14Rik | inactive: -0.0984
CCGAUUUAAUCUCUUAGAATT against Ets2 | inactive: -0.98
CGGGAUAGUAACUUCUUAATT against 2310038H17Rik | inactive: -0.872
CCAAAGAGAUCCCAUACAATT against 1700013B16Rik | inactive: -0.651
GGAGGAAAAAUGAAAAGUATT against Clpx | inactive: 0.132
GCAGCAGUAAUAGUCAUACTT against Ccnj | inactive: 1.7
CCUGACCUAAUCGAGAAUGTT against Speer2 | inactive: 1.42
GCCUUAGGAUACUACUGUUTT against Map3k3 | inactive: -1.57
GGGAAAGUGUGUAAUAAAUTT against AU040377 | inactive: 0.918
GGAGAACCCAUGUAACUGUTT against Tcl1b1 | inactive: 0.17
CGGCGAUGGAAAAAAAUUUTT against 2810417M05Rik | inactive: 1.66
CGUGUGUUCCGGAAACAGATT against Tnfrsf11b | inactive: -0.172
CCUUAUUGUGACAGAAGUATT against Tnc | inactive: 0.0549
GCUAAGAGUACAUUGUAACTT against Tmeff2 | inactive: 0.267
GGAUCAGAACUUAUCUGUGTT against D530033C11Rik | inactive: -0.73

Reformatted as a markdown table: entries from further up

| Sequence | z-score |
| --- | --- |
| GGAUAGACAGAAAUUCUCATT against Flot1 | inactive: -0.724 |
| CCUGAUUGGGAUCUCAAGATT against 2700094L05Rik | inactive: -0.425 |
